Measurements as given in article PMC10111864.

T1: KIF1C (endogenous, untagged) (mouse (endogenous in YUMM1.7)) (UniProt O35071)
T1 sequence: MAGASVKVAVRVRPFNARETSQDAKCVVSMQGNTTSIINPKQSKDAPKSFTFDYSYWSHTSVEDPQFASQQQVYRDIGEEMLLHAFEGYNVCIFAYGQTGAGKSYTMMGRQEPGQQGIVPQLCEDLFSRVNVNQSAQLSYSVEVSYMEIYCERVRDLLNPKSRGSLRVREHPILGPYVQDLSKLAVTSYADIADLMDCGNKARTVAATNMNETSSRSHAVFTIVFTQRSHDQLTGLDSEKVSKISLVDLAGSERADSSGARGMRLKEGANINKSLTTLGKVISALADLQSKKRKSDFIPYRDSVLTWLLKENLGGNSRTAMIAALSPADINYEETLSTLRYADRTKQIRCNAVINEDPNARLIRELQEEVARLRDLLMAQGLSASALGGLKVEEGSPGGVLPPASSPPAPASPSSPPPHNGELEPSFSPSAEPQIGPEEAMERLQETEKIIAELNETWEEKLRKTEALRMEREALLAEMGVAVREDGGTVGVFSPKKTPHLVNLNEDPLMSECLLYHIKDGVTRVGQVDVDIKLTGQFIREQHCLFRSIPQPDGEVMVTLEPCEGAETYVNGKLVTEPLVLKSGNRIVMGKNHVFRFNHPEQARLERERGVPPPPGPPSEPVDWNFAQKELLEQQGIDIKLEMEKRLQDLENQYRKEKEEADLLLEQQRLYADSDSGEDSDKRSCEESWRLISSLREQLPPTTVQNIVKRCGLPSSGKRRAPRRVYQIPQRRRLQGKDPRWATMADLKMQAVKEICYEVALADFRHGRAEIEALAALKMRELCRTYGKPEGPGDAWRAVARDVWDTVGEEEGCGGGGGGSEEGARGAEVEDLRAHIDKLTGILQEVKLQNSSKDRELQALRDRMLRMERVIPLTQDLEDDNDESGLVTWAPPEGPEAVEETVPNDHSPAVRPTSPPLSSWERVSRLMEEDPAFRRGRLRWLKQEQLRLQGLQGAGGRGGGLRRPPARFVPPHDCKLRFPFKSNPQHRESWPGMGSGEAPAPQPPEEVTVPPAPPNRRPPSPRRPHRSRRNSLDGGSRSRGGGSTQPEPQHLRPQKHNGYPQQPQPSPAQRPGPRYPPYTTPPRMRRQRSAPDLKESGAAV

B1: FLII (protein, UniProt Q9JJ28 1-1271)
chain: MEATGVLPFVRGVDLSGNDFKGGYFPENVKAMTSLRWLKLNRTGLCYLPEELAALQKLEHLSVSHNHLTTLHGELSSLPSLRAIVARANSLKNSGVPDDIFKLDDLSVLDLSHNQLTECPRELENAKNMLVLNLSHNGIDSIPNQLFINLTDLLYLDLSENRLESLPPQMRRLVHLQTLVLNGNPLLHAQLRQLPAMMALQTLHLRNTQRTQSNLPTSLEGLSNLSDVDLSCNDLTRVPECLYTLPSLRRLNLSSNQIAELSLCIDQWVHLETLNLSRNQLTSLPSAICKLTKLKKLYLNSNKLDFDGLPSGIGKLTSLEEFMAANNNLELIPESLCRCPKLKKLVLNKNRLVTLPEAIHFLTEIQVLDVRENPSLVMPPKPADRTAEWYNIDFSLQNQLRLAGASPATVAAAAAVGSGSKDPLARKMRLRRRKDSAQDVQAKQVLKGMSDVAQEKNKNQEESIDARAPGGKVRRWDQGLEKPRLDYSEFFTEDVGQLPGLTIWQIENFVPVLVEEAFHGKFYEADCYIVLKTFLDDSGSLNWEIYYWIGGEATLDKKACSAIHAVNLRNYLGAECRTVREEMGDESEEFLQVFDNDISYIEGGTASGFYTVEDTHYVTRMYRVYGKKNIKLEPVPLKGSSLDPRFVFLLDQGLDIYVWRGAQATLSNTTKARLFAEKINKNERKGKAEITLLVQGQEPPGFWDVLGGEPSEIKNHVPDDFWPPQPKLYKVGLGLGYLELPQINYKLSVEHKKRPKVELMPGMRLLQSLLDTRCVYILDCWSDVFIWLGRKSPRLVRAAALKLGQELCGMLHRPRHTVVSRSLEGTEAQVFKAKFKNWDDVLTVDYTRNAEAVLQGQGLSGKVKRDTEKTDQMKADLTALFLPRQPPMPLAEAEQLMEEWNEDLDGMEGFVLEGRKFTRLPEEEFGHFYTQDCYVFLCRYWVPVEYEEEEKTEDKEGKASAEAREGEEAAAEAEEKQPEEDFQCIVYFWQGREASNMGWLTFTFSLQKKFESLFPGKLEVVRMTQQQENPKFLSHFKRKFIIHRGKRKVTQGTLQPTLYQIRTNGSALCTRCIQINTDSSLLNSEFCFILKVPFESEDNQGIVYAWVGRASDPDEAKLAEDILNTMFDASYSKQVINEGEEPENFFWVGIGAQKPYDDDAEYMKHTRLFRCSNEKGYFAVTEKCSDFCQDDLADDDIMLLDNGQEVYMWVGTQTSQVEIKLSLKACQVYIQHTRSKEHERPRRLRLVRKGNEQRAFTRCFHAWSTFRQAPA
B2: ATL3 (protein, UniProt Q91YH5 1-541)
chain: MLSPQRTAAVASRGAGDAMENGKPGPVQVVLVHKEQHSFELEERALASVLLQDHIRDLDVVVVSVAGAFRKGKSFILDFMLRYLYSQKEGGHSDWLGDPEEPLTGFSWRGGSDPETTGIQIWSEVFTVKKPCGKKVAVVLMDTQGAFDSQSTVKDCATIFALSTMTSSVQIYNLSQNIQEDDLQQLQLFTEYGRLAMDEIFQKPFQTLMFLIRDWSFPYEYNYGLQGGMAFLDKRLHVKEHQHEEIQNVRNHIHSCFSDVTCFLLPHPGLQVATSPNFDGKLKDIASEFKEQLQALIPYVLNPSKLMEKEINGSKVTCRGLLEYFKAYIKIYQGEDLPHPKSMLQATAEANNLAAAASAKDIYYNNMEEICGGEKPYLSPDILEEKHLEFKQLALDHFKKIKKMGGKDFSFRYQQELEEEIKELYENFCKHNGSKNVFSTFRTPAVLFTGIAALYIASGFTGFIGLEVVAQLFNCMVGLLLIALLTWGYIRYSGQYRELGGAIDSGAAYVLEQASSHIGNSTQAAVRDAVVGRPPADKKSQ
B3: RAI14 (protein, UniProt Q9EP71 1-979)
chain: MKSLKAKFRKSDTNEWNKNDDRLLQAVENGDAEKVASLLGKKGASATKHDSEGKTAFHLAAAKGHVECLKVMVTHGVDVTAQDSSGHSALHVAAKNGHPECIRKLLQYKSPAENIDNSGKTALHYAAAQGCLQAVQLLCEHKSPINLKDLDGNIPLLVAVQNGHSEACHFLLDHGADVNSRDKNGRTALMLACETGSSNTVDALIKKGADLSLVDSLGHNALHYSKLSENAGIQNLLLSKISQDADLKTPTKPKQHDQVSKISSERSGTPKKRKAPPPPISPTQLSDVSSPRSITSTPLSGKESVFFAEAPFKAEISSIQENKDRLSDSTAGADSLLDISSEADQQDLLVLLQAKVASLTLHNKELQDKLQAKSPKDKEAEADLSFQSFHSTQTDLAPSPGKASDIPSSDAKSSPPVEHPAGTSTTDNDVIIRQLQDSLHDLQKRLESSEAEKKQLQDELQSQRTDTLCLNNTEISENGSDLSQKLKETQSKYEEAMKEVLSVQKQMKLGLLSQESADGYSHLREAPADEDIDTLKQDLQKAVEESARNKERVRELETKLAEKEQAEATKPPAEACEELRSSYCSVIENMNKEKAFLFEKYQQAQEEIMKLKDTLKSQMPQEAPDDSGDMKEAMNRMIDELNKQVSELSQLYREAQAELEDYRKRKSLEDAAEYIHKAEHERLMHVSNLSRAKSEEALSEMKSQYSKVLNELTQLKQLVDAHKENSVSITEHLQVITTLRTTAKEMEEKISALTGHLANKEAEVAKLEKQLAEEKAAVSDAMVPKSSYEKLQASLESEVNALATKLKESVREREKAHSEVAQVRSEVSQARREKDNIQTLLKAKEQEVTALVQKFQRAQEELAGMRRCSETSSKLEEDKDEKINEMTREVLKLKEALNSLSQLSYSTSSSKRQSQQLDLLQQQVKQLQNQLAECKKHHQEVISVYRMHLLYAVQGQMDEDVQKVLKQILTMCKNQSQKK

What follows are binders tested against T1, KIF1C (endogenous, untagged) (mouse (endogenous in YUMM1.7)) (assay: affinity purification with mass spectrometry; IP of endogenous KIF1C with α-KIF1C antibody (Bethyl A301-072A) and protein G Dynabeads from lysates of Kif1c+/+ and Kif1c ΔGA1,2 YUMM1.7 cells, Kif1c LOF cells as negative control; 4.5-5 mg total protein; washes 50 mM Tris pH 7.4, 150 mM NaCl, 0.02% NP-40; hits more than threefold enriched over …).

binding, binds:
B1
B2
B3

These are yes or no findings as the source states them, for the method shown. In cells and extracts the contact can be indirect. These calls come from enrichment with a bait or labelling near it, and not all partners need be listed. Sequences can lack the tags named with a protein.
